PubChem BioAssay AID1259425 – University of Nebraska Medical Center – 2018
Screen: 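Compare each knockdown with KSR1 silencing using changes in marker transcripts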 (primary screen). Cells: HCT116 human colon cancer cells. Reagent: siRNA pool against human genes, 50 nM siRNA. Read-out: 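mRNA of six signature genes measured together by branched-DNA assay after 50 nM siRNA pool, blank removed, divided by geometric mean of two housekeeping genes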. Direction: BNIP3L mRNA: higher = more BNIP3L transcript after knockdown; NDRG1 mRNA: higher = more NDRG1 transcript after knockdown.
In all, the deposit lists about 14,000 reagents; below is a random part of them. Further read-outs or replicates are left out here. No sequences are given here. Not given: the time to read-out.

target gene	BNIP3L mRNA, set 1	NDRG1 mRNA, set 1
DBP	0.0608	0.0517
LARS1	0.246	0.558
FOXA2	0.112	0.213
SLC35D1	0.0789	0.141
PGAP1	0.0786	0.206
UTS2R	0.0497	0.14
TUBAL3	0.0831	0.086
RAB14	0.0827	0.166
STK32B	0.098	0.132
MAP2	0.238	0.976
CDC14C	0.0922	0.163
KCNE3	0.099	0.112
ZNF43	0.0834	0.134
LOC84843 (retired record)	0.109	0.128
LLGL2	0.189	0.372
ZNF287	0.13	0.19
ZNF254	0.117	0.222
NAA11	0.134	0.131
CLDN18	0.234	0.278
PCDHGA4	0.0702	0.109

Targets above whose target name starts with L or l:
target gene	BNIP3L mRNA, set 1	NDRG1 mRNA, set 1
LARS1	0.246	0.558
LOC84843 (retired record)	0.109	0.128
LLGL2	0.189	0.372
